# Data: patent publication US8258215B2, “Mixed alkyl-alkylaryl-phenyl phosphite polymer additive” (Dover Chemical Corporation, priority 2010, dated 2012)
# Details: 60° C., 1st pass material
Substance,"YI (Yellowness Index) Color, Gas Fade, 0 hrs.","YI (Yellowness Index) Color, Gas Fade, 24 hrs.","YI (Yellowness Index) Color, Gas Fade, 48 hrs.","YI (Yellowness Index) Color, Gas Fade, 72 hrs."
"Mixed C12-18 alkyl, p-cumylphenyl phosphite [Example 7]",−5.4,−3.4,−2.1,−1.0
"Mixed C18 alkenyl, p-cumylphenyl phosphite [Example 4]",−5.6,−2.4,0.3,1.9
"Mixed C12-14 Alkyl, 2,4-dicumylphenyl Phosphite [Example 10]",−5.8,−2.5,1.1,4.1
"Mixed C10 alkyl, p-cumylphenyl phosphite [Example 3]",−4.4,−1.4,1.4,5.0
"Mixed C12-14 alkyl, p-cumylphenyl phosphite [Example 2]",−5.6,−2.8,−1.0,1.4
"Mixed C16-18 alkyl, p-cumylphenyl phosphite [Example 6]",−3.5,−0.9,0.6,2.4
"tris(nonylphenyl)phosphite [TNPP, reference compound]",−3.7,−2.4,−1.2,0.7
